Measured values: patent publication US20250134870A1, “PATHWAY MODULATOR, PHARMACEUTICAL COMPOSITION HAVING SAME, USE THEREOF, AND THERAPEUTIC METHOD USING SAME” (Jiangsu Yahong Meditech Co., Ltd., priority 2021, published 2025)
For at least one compound, name, drawing or mass did not settle the structure.

System: dextran sulfate sodium (DSS)-induced colitis
Assay: DSS-induced colitis in mice, 3.1% DSS: body weight change and DAI (Example 11)
Format: in vivo, C57BL/6 mice
Conditions: 100 mg/kg, bid
Description: The experimental mice were housed in an SPF grade animal room for three days for adaptation, and randomly divided into 7 groups (6 model groups and 1 control group) of 10 mice in each group. Dosing of mice started on Day 0 and ended on Day 7.
The mouse enteritis model of this Example was established by DSS induction: mice in the model group were provided with a 3.1% DSS (dextran sulfate sodium, molecular weight 36,000-50,000) aqueous solution from Day 0 to Day 7, and the DSS aqueous solution was replaced with freshly prepared solution every day to prevent degradation. Mice in the normal control group were provided with normal water. The experimental period was 9 days, and the mice were euthanized and samples were collected at the experimental endpoint.
The DAI score was assessed daily. The DAI score consisted of 3 parts: body weight change, stool characteristics, and hematochezia (or occult blood) score, and the specific scoring criteria were as shown in Table 49. The DAI scoring of all mice was done by the same staff throughout the experiment.
Mice were euthanized at the experimental endpoint. The colon of mice was dissected, and photograph was taken, the length was measured, and the contents were removed before weighing.
The data were expressed as mean±standard error (X±s). Body weight change and disease activity score were statistically analyzed by two-way ANOVA and comparison between groups were performed by Dunnett's test. Other data were statistically analyzed by one-way ANOVA and comparison between groups were performed by Dunnett's test. All analyses were performed using GraphPad Prism software. * P<0.05, ** P<0.01, *** P<0.005, **** P<0.0001 vs. solvent group.

CCCCc1ccc(C(=O)O)nc1 [Fusaric acid]
symptoms caused by DSS-induced colitis (diarrhea, hematochezia): slightly ameliorate the symptoms of diarrhea and hematochezia
DSS-induced body weight loss (vs solvent group): failed to effectively alleviate DSS-induced body weight loss
disease activity score (DAI) (vs solvent group, relatively obvious on Day 4 and Day 5): slightly improved
